Laboratory results taken from patent publication US20170258924A1, “Ester of a Phospholipid With Conjugated Linoleic Acid for the Treatment of Psychiatric Disorders With Neuroinflammatory and Neurodegenerative Basis” (UNIVERSITA' DEGLI STUDI DI CAGLIARI, priority 2014, published 2017).
At least one compound was matched to its structure with a doubt left.

Test system: frontal cortex of mice
Assay: in vivo administration to mice, levels of OEA in the frontal cortex
Details: mice treated for 14 days with a diet containing 0.2% of fenofibrate; FIG. 2
Source text: The values, mean and DS, are expressed as pmoles/g tissue. Different letters indicate significant differences (p<0.05); the One-way ANOVA statistical analysis was used, with Tukey test for post-hoc analysis.
The methods employed for the analysis of the levels of conjugated linoleic acid, PEA and OEA in vivo and in vitro are described in detail in (Melis et al. 2001) and in (Piscitelli et al. 2011), respectively.
Since astrocytes are involved in neuroinflammation, the action of CLA (80% c9,t11 isomer) was also verified in cultures of astrocytes after having induced neuroinflammation with LPS. Oleic acid was used as a control.

CC(C)OC(=O)C(C)(C)Oc1ccc(C(=O)c2ccc(Cl)cc2)cc1 [fenofibrate, reference compound]
levels of OEA in the frontal cortex: induced
